The values below come from patent US8383617B2, “Treatment of protein aggregation diseases” (priority 2007, dated 2013).

Amino acid sequences for entries named in this document (tags omitted). Residues count along the entry.
UniProt P05067, 672-711: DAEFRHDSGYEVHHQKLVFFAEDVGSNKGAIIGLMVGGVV

The target in the assay is Synthetic beta-amyloid peptide 1-40 (Homo sapiens, UniProt P05067). As to the kind of experiment: Seprion assay screen for compounds that affect amyloid aggregation. The conditions noted are these: test compounds at 1 mM; peptide 2.8 μg/ml, 30 min at 37° C.; Seprion assay signal. The class given is biochemical.

Consider `CSc1ccc2c(c1)N(CCC1CCCCN1C)c1ccccc1S2.Cl` (stereo not shown) [Thioridazine, thioridazine], for which the “Relative aggregation compared to 'no compound' aggregation control” value was 11.9%.
